At least one compound was matched to its structure with a doubt left.
Key:
rictor-mTOR complex = molecular target: T1, rictor-mTOR complex (Homo sapiens, UniProt P42345); experiment: rictor-mTOR immunoprecipitate kinase assay with Akt1/PKB1 as substrate; type: biochemical; settings: immunoprecipitates from HEK-293T or HeLa cells; FIG. 3C
T1 construct: Immunoprecipitates prepared from lysates of HEK-293T or HeLa cells with the indicated antibodies; endogenous in cells; host or cells: A1: HEK-293T or HeLa; A11: PC3, BJAB, Jurkat, HeLa, H460 (treated with rapamycin before lysis)
Experimental: For all immunoprecipitation experiments the lysis buffer contained 0.3% CHAPS instead of 1% Triton in order to preserve the integrity of the mTOR complexes (D. D. Sarbassov et al., Curr Biol 14, 1296 (2004); D.-H. Kim et al., Cell 110, 163 (2002)). 4 μg of the indicated antibodies were added to the cleared cellular lysates and incubated with rotation for 90-min. 25 μl of a 50% slurry of protein G-sepharose was then added and the incubation continued for 1 h. Immunoprecipitates captured with protein G-sepharose were washed four times with the CHAPS Lysis Buffer and once with the rictor-mTOR kinase buffer (25 mM Hepes pH 7.5, 100 mM potassium acetate, 1 mM MgCl2). […] After a quick spin, the supernatant was removed from the protein G-sepharose and analyzed by immunoblotting (D.-H. Kim et al., Cell 110, 163 (2002)). […] Supernatants were used in the Akt1/PKB1 kinase assay as described below and were also analyzed by immunoblotting. The pelleted G-sepharose beads were also analyzed by immunoblotting to determine the levels of rictor, mTOR, and raptor in the immunoprecipitates. Akt1/PKB1 kinase activity was determined using Crosstide (Upstate Biotechnology, #12-331) as substrate as recommended by the manufacturers protocol. […] After the washing, the P81 squares were dried and radioactivity read in a scintillation counter.

T389 of S6K1 = experiment: immunoblotting for S6K1 T389 phosphorylation; type: cell-based, human; settings: PC3, HEK-293T, HeLa and H460 cells, 100 nM, 1 or 24 hours

SMILES	in vitro phosphorylation of Akt/PKB by rictor-mTOR (rictor-mTOR complex)	S6K1 phosphorylation (T389 of S6K1)
O=c1cc(N2CCOCC2)oc2c(-c3ccccc3)cccc12 [LY294002]	blocked	
CO[C@H]1C[C@@H]2CC[C@@H](C)[C@@](O)(O2)C(=O)C(=O)N2CCCC[C@H]2C(=O)O[C@H]([C@H](C)C[C@@H]2CC[C@@H](O)[C@H](OC)C2)CC(=O)[C@H](C)/C=C(\C)[C@@H](O)[C@@H](OC)C(=O)[C@H](C)C[C@H](C)/C=C/C=C/C=C/1C [rapamycin]		eliminated
COC[C@H]1OC(=O)c2coc3c2[C@@]1(C)C1=C(C3=O)[C@@H]2CCC(=O)[C@@]2(C)C[C@H]1OC(C)=O [wortmannin]	blocked	
